Measured values taken from US6610299B1, “Glycosyl-etoposide prodrugs, a process for preparation thereof and the use thereof in combination with functionalized tumor-specific enzyme conjugates” (Aventis Pharma Deutschland GmbH, priority 1989, dated 2003).
For some assays here: The name of at least one read-out is uncertain. For some assays here: At least one compound was matched to its structure with a doubt left.

The chains behind the UniProt entries cited, without tags or fusion partners. Where a name states a change or a piece, a line headed by the entry shows the natural chain unless it says otherwise. A line that says so, or that is headed by a name, gives the form on record, which may keep a tag or linker. Residues count along the entry.
UniProt P01860: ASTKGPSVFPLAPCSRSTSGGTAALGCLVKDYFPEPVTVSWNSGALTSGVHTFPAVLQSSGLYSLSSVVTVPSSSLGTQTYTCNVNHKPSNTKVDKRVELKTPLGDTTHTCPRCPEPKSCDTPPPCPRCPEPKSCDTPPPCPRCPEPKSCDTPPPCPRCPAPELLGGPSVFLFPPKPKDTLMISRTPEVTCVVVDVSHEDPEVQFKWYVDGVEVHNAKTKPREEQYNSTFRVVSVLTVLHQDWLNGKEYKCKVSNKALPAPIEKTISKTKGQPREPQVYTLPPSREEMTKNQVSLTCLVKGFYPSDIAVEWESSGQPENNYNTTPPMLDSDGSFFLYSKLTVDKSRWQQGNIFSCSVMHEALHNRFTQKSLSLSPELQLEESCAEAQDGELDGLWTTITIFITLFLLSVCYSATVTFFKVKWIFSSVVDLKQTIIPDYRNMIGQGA
431/26 hum VH huβGlc 1H fusion protein (Homo sapiens, UniProt P01860+P08236), UniProt P01860+P08236, fused: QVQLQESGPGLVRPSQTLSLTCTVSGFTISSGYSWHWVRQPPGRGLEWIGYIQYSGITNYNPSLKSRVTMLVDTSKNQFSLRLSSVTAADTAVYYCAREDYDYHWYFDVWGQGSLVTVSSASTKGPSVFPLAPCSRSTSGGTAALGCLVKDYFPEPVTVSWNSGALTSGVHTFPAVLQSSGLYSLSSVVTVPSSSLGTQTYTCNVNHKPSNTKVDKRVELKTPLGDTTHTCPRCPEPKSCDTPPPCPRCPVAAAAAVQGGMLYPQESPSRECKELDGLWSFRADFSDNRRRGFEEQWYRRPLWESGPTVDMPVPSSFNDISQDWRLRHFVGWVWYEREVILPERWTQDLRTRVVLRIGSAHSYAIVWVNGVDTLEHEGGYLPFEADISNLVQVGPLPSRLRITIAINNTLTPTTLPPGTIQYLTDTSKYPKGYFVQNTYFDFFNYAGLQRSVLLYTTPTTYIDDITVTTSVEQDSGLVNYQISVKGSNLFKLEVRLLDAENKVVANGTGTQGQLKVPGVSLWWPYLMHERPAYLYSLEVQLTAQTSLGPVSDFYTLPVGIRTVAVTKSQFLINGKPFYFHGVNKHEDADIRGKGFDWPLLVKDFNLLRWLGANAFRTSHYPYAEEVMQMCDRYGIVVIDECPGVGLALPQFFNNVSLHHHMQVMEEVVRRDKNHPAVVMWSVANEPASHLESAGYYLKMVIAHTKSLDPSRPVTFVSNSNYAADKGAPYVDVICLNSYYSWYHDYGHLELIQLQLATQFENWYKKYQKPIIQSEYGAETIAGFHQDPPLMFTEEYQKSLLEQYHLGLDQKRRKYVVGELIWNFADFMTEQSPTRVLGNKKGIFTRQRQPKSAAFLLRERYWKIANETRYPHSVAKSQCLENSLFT
UniProt Q42656, 16-378: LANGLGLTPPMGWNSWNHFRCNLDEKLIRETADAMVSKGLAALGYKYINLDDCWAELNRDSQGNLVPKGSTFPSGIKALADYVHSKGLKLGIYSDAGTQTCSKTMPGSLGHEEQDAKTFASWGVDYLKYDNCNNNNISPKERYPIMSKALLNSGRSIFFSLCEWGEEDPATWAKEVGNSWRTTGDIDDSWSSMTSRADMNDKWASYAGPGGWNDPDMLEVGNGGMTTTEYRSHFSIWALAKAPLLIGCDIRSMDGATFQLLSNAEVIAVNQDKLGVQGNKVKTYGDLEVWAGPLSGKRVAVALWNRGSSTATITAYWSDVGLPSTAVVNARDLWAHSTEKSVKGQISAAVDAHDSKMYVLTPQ

What was measured:
Type in all cases: biochemical
[1] = target: T1, 431/26 hum VH huβGlc 1H fusion protein (Homo sapiens, UniProt P01860+P08236); experiment: prodrug cleavage by β-glucuronidase (fusion protein), HPLC; settings: 6.5 U/ml fusion protein, pH 7.2, 37° C
T1 construct: made in house; host or cells: BHK cells
Protocol: (§1) It was shown in Example 17 that the β-glucuronidase portion of the fusion protein is able, like the native human enzyme, to cleave the β-glucuronide of 4-methylumbelliferol. In the investigations which are described hereinafter, the substrate used for the enzymatic cleavage was a β-glucuronide, linked via a spacer group, of the cytostatic daunomycin. The specific procedure for these investigations was as follows:
(§2) 4 mg of the compound N-(4-hydroxy-3-nitrobenzyloxy-carbonyl)daunorubicin β-D-glucuronide (prodrug), which is described in French Patent Application (No. d'Enregistrement National: 9105326) were dissolved in 1 ml of 20 mM phosphate buffer, pH 7.2. 35 μl of the fusion protein (Example 21) or of human β-glucuronidase (total concentration in each case 6.5 U/ml; 1 U=cleavage of 1 μmol of 4-methyl-umbelliferol/min at 37° C.) were pipetted into 5 μl portions of this substrate solution and incubated in the dark at 37° C. Samples (5 μl) of the incubation mixture were removed after various times and immediately analyzed by high pressure liquid chromatography under the following conditions:
(§3) Nucleosil 100 RP 18, 5 μm particle diameter, 125×4.6 mm
(§4) Gradient of solution A (100% acetonitrile) and solution B (20 mM phosphate buffer pH.3.0)
(§5) Detection: fluorescence, excitation 495 nm, emission […]
(§6) Data analysis: Beckman System Gold Software

human β-glucuronidase = target: T2, human β-glucuronidase (Homo sapiens, UniProt P08236); experiment: prodrug cleavage by β-glucuronidase (human, recombinant), HPLC; settings: 6.5 U/ml human β-glucuronidase, pH 7.2, 37° C
T2 sequence (P08236 23-651): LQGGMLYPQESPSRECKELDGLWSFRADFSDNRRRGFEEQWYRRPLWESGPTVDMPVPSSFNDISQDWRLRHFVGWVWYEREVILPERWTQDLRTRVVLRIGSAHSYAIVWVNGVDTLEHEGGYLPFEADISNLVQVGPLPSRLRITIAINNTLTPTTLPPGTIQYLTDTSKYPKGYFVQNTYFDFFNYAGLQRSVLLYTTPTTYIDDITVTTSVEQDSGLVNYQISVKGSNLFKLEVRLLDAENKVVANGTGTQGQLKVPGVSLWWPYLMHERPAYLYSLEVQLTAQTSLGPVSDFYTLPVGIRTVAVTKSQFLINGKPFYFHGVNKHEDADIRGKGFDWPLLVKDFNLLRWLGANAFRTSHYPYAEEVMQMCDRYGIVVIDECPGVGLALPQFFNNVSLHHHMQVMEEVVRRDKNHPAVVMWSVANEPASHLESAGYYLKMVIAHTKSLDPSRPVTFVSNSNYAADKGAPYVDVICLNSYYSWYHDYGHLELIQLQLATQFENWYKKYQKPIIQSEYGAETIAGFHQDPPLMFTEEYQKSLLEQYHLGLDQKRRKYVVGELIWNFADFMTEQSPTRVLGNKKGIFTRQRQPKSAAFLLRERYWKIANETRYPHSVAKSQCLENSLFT
Protocol: as §1, §2, §3, §4, §5, §6

α-galactosidase = target: T3, α-galactosidase (Coffea arabica, UniProt Q42656); experiment: cleavage with α-galactosidase (from green coffee beans), HPLC; settings: 1 mg/ml, 0.3 U/ml α-galactosidase, 20 mM sodium phosphate buffer pH 5, 37° C
T3 construct: purchased Sigma Co; host or cells: green coffee beans

α-galactosidase A = target: T4, α-galactosidase A (Homo sapiens, UniProt P06280); experiment: cleavage with α-galactosidase A (from human placenta), HPLC; settings: 0.36 U/ml α-galactosidase A, pH 5, 37° C
T4 construct: isolated from human placenta; from tissue; host or cells: human placenta
T4 sequence (P06280 32-429): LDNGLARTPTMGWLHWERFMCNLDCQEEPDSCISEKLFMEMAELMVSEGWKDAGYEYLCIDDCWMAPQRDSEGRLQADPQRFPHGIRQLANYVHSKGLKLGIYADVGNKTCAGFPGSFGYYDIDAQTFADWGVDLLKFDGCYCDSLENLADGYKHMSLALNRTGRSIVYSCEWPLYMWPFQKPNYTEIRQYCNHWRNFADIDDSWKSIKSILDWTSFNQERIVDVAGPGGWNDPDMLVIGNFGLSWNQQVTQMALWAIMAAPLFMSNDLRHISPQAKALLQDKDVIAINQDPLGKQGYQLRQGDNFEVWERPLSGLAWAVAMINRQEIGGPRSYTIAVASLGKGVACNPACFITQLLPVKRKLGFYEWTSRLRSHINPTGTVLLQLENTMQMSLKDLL

Compound | half-life of the cleavage of the prodrug [1] [h] | half-life of the cleavage of the prodrug (human β-glucuronidase) [h] | half-life of cleavage (α-galactosidase) [h] | half-life of cleavage (α-galactosidase A; 10.7 μg/ml) [h] | half-life of cleavage (α-galactosidase A; 107 μg/ml) [h]
COc1cccc2c1C(=O)c1c(O)c3c(c(O)c1C2=O)C[C@@](O)(C(C)=O)C[C@@H]3O[C@H]1C[C@H](NC(=O)OCc2ccc(O[C@@H]3O[C@H](C(=O)O)[C@@H](O)[C@H](O)[C@H]3O)c([N+](=O)[O-])c2)[C@H](O)[C@H](C)O1 [Prodrug, N-(4-hydroxy-3-nitrobenzyloxy-carbonyl)daunorubicin β-D-glucuronide] | 2.3 | 0.8 | – | – | –
4′-O-Demethyl-4-epi-4′-O-(α-D-galactopyranosyl)-4-O-(4,6-O-ethylindene-β-D-glucopyranosyl)-podophyllotoxin [4′-O-α-D-galactopyranosyl-etoposide] | – | – | 0.25 | 7 | 4
